According to the supplement of paper PMC12595434, “Development of retinoid nuclear receptor pathway antagonists through targeting aldehyde dehydrogenase 1A3” (iScience, 2025):
This is one part of the list. Single values of this set are uncertain.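 Tm was set to 64 °C where no melting was found, and many curves are irregular.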

Protein sequences, listed by entry. Tags and fused reporters are not part of them. Lines headed by an entry give the natural chain unless they say otherwise; changes in a name come on top.
UniProt Q16595: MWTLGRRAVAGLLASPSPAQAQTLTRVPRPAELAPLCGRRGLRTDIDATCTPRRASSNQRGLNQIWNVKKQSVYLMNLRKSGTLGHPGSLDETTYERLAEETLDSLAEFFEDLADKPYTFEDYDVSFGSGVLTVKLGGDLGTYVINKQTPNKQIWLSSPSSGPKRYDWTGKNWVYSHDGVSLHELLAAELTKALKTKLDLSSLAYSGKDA
UniProt Q15714: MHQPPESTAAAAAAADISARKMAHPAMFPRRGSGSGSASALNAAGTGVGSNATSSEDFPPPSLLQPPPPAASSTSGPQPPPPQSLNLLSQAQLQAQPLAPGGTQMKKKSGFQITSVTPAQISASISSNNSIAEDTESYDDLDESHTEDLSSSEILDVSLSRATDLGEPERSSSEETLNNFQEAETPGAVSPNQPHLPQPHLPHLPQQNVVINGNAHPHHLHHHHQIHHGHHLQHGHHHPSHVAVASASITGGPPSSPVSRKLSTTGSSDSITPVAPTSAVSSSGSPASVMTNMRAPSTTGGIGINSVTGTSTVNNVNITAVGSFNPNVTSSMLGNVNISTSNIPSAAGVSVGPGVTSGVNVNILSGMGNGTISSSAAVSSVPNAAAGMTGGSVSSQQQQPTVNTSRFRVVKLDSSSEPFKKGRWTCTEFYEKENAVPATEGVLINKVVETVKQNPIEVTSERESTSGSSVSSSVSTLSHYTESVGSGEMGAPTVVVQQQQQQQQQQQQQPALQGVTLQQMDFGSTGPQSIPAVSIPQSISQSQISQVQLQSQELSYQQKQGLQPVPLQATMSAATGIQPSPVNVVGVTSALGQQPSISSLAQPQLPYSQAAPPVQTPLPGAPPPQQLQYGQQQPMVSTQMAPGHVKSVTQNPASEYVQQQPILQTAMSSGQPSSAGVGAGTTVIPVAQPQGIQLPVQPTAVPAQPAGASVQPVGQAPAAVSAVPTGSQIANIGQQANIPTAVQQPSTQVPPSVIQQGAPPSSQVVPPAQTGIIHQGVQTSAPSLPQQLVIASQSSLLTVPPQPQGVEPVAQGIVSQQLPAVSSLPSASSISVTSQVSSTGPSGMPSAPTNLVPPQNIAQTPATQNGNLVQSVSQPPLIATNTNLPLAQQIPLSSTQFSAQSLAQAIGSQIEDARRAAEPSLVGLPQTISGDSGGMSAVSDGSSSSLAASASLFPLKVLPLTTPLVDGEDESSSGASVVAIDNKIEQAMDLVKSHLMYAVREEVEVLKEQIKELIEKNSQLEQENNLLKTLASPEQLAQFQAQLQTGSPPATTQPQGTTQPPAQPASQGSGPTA
UniProt Q16740, whole entry: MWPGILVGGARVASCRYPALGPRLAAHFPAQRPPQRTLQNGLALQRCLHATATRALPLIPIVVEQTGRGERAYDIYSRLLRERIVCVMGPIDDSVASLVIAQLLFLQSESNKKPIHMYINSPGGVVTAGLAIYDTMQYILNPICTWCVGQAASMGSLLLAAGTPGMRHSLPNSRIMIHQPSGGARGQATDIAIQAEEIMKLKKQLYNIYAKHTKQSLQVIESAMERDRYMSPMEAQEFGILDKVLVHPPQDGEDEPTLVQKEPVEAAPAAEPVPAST
UniProt Q16629: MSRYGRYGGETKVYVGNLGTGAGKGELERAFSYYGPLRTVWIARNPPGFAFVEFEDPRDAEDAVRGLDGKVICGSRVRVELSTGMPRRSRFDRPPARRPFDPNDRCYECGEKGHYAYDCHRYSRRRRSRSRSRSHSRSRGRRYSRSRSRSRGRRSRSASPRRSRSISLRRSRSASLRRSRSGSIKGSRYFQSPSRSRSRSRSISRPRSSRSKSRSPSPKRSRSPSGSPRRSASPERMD
UniProt Q16401: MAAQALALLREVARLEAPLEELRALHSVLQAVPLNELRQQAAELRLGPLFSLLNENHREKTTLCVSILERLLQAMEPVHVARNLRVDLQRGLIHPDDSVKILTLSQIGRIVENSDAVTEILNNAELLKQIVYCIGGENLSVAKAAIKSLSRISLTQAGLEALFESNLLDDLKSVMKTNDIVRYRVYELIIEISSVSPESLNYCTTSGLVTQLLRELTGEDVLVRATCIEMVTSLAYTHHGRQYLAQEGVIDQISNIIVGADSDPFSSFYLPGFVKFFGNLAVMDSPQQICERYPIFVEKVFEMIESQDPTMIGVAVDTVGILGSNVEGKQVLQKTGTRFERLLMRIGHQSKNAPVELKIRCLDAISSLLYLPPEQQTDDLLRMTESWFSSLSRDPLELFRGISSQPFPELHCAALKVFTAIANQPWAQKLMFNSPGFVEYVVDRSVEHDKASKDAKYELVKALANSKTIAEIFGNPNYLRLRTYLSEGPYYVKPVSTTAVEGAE
UniProt Q15459: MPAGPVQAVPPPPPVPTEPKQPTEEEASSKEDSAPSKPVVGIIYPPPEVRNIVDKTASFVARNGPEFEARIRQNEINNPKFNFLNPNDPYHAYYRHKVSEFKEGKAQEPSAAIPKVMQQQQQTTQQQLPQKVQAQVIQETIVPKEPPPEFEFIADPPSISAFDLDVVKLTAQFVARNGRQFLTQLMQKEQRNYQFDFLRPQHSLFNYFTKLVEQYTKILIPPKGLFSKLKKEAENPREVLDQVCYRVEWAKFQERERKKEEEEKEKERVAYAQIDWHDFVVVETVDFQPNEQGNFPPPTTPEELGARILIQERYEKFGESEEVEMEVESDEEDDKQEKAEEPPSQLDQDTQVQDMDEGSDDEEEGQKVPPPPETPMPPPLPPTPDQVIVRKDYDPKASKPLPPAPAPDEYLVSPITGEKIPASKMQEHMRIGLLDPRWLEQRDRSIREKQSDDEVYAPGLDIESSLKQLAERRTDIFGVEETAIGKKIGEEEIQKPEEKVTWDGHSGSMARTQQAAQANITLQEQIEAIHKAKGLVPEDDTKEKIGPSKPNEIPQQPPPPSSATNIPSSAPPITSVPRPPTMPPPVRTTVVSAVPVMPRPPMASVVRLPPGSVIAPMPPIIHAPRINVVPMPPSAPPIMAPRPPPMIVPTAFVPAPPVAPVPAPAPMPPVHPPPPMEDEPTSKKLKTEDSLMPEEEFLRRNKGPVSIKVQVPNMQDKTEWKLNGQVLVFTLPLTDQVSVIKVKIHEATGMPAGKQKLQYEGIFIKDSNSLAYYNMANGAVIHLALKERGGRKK
UniProt Q53HV7: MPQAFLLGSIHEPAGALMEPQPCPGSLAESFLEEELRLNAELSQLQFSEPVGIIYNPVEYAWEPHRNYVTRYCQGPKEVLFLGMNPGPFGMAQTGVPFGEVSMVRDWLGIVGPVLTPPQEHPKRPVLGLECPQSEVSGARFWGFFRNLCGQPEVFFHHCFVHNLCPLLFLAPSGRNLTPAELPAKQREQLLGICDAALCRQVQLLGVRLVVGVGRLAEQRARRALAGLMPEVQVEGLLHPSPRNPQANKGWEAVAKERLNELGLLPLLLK
UniProt Q2TAZ0: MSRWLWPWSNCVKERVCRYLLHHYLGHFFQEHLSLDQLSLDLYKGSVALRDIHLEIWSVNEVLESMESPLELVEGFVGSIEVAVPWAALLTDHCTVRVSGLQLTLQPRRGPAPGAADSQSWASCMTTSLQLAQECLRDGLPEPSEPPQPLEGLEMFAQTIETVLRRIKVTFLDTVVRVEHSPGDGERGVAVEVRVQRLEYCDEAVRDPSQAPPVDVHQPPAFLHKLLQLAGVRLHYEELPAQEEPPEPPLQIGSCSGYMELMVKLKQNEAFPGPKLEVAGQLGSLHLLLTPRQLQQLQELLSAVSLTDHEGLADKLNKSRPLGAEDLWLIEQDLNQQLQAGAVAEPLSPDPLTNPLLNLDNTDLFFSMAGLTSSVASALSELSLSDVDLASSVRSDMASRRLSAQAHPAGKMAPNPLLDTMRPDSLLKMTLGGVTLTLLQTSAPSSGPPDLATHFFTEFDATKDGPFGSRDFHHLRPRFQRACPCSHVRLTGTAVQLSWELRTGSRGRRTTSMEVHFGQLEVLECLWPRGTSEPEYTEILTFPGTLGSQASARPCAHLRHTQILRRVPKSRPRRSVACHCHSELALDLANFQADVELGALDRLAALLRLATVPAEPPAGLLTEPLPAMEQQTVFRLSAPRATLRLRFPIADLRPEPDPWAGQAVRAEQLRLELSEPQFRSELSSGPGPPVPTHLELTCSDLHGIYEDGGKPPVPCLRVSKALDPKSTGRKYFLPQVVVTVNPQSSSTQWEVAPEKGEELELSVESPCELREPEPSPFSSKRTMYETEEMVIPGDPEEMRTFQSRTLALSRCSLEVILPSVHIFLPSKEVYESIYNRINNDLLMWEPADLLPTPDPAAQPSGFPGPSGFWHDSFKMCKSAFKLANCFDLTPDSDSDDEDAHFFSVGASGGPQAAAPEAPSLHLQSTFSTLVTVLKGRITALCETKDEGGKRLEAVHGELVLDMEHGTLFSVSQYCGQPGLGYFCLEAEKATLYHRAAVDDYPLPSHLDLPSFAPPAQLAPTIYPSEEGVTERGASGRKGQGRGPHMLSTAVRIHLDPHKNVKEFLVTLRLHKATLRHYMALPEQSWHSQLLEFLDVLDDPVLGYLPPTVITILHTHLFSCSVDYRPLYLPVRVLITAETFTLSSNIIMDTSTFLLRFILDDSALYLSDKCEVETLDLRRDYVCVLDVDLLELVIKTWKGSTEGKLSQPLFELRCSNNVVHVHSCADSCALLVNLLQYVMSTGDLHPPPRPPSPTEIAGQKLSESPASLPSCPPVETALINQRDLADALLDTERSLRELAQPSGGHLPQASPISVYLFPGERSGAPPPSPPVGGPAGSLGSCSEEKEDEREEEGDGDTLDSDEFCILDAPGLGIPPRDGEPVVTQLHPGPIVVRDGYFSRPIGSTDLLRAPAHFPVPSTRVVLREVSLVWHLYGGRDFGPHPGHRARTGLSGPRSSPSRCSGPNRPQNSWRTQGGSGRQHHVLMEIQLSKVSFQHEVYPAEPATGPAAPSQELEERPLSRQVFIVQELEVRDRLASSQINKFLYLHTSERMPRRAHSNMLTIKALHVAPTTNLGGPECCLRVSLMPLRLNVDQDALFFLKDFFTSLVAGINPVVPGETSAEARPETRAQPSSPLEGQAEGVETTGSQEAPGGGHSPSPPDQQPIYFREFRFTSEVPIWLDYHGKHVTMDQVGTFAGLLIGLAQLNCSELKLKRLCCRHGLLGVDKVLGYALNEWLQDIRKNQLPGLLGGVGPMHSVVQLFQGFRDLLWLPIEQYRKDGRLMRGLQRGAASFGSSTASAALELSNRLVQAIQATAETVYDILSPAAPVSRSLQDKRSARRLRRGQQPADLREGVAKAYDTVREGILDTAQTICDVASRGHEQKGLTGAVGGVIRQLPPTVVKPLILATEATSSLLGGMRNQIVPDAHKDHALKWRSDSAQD
UniProt Q15155: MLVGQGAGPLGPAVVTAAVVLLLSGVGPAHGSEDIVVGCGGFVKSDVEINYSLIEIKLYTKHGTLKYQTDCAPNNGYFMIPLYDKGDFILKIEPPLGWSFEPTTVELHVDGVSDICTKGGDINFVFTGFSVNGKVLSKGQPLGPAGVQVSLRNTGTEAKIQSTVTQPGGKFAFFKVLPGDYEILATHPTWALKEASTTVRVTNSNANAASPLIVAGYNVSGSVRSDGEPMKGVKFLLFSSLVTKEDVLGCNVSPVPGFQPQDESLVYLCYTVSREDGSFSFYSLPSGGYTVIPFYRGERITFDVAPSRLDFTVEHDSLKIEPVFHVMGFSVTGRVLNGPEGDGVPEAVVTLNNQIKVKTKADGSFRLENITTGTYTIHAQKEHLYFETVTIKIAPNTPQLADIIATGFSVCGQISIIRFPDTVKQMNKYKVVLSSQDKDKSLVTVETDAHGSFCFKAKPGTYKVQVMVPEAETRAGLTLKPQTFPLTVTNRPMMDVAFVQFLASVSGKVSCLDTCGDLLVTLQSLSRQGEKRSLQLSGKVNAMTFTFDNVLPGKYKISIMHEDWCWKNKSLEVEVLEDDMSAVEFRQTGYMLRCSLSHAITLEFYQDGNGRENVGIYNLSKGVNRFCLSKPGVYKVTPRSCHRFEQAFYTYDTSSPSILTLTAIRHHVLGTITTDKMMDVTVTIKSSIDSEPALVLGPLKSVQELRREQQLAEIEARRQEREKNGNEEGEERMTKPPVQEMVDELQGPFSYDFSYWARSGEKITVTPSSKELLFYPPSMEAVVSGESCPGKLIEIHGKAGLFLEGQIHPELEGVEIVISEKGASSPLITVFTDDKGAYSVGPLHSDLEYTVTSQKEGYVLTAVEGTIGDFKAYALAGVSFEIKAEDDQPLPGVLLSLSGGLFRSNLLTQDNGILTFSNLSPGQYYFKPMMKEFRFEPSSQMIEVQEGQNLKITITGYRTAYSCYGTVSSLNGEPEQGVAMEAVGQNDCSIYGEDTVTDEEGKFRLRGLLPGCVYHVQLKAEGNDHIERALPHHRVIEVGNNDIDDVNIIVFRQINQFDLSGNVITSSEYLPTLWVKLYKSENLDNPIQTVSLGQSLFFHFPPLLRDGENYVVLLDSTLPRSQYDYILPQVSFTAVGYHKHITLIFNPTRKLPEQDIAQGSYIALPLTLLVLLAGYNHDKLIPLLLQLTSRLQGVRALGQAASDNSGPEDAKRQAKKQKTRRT

Compound: CCc1cnccc1C(=O)Nc1cc2c(cc1F)NC(=O)CC2
Test: melting temperature shift (DMSO Tm minus MBE1-treated Tm) in cellular thermal proteome profiling; higher = less thermal stabilization by MBE1 (negative = stabilized by MBE1)
Details: A375

| Target | melting temperature shift (MBE1 concentration: 100 nM) [°C] | melting temperature shift (MBE1 concentration: 1 uM) [°C] |
| --- | --- | --- |
| UniProt Q15464 | 0.208 | – |
| RALBP1 (UniProt Q15311) | 0.884 | -0.103 |
| UniProt Q16623 | -5.24 | -4.97 |
| HERC1 (UniProt Q15751) | -0.0855 | 0.318 |
| UniProt Q2M1P5 | -0.702 | 1.71 |
| CLEC16A (UniProt Q2KHT3) | 4.36 | – |
| MAP3K11 (UniProt Q16584) | – | -1.63 |
| FXN (UniProt Q16595) | -1.13 | -2.4 |
| UniProt Q16739 | -0.275 | – |
| CDC37 (UniProt Q16543) | -0.449 | -0.402 |
| SF3B4 (UniProt Q15427) | 0.00611 | 0.446 |
| UniProt Q15853 | – | 0.0768 |
| NRF1 (UniProt Q16656) | 0.134 | -0.623 |
| UniProt Q3SY17 | -2.31 | – |
| CHD9 (UniProt Q3L8U1) | 0.814 | – |
| UniProt Q16842 | 0.543 | – |
| UniProt Q4VCS5 | 1.17 | -1.07 |
| TSC22D1 (UniProt Q15714) | – | -3.71 |
| ARL13B (UniProt Q3SXY8) | -0.512 | -0.0183 |
| LGALSL (UniProt Q3ZCW2) | 0.604 | 0.154 |
| UniProt Q15723 | – | -0.666 |
| BOLA3 (UniProt Q53S33) | – | 0.0855 |
| KYNU (UniProt Q16719) | -0.462 | 1.13 |
| UBE3C (UniProt Q15386) | 0.684 | -0.47 |
| TCEAL1 (UniProt Q15170) | -1.62 | -4.19 |

Single records, as listed above.
UniProt Q16623 is entered as melting temperature shift (MBE1 concentration: 100 nM) [°C]: -5.24; melting temperature shift (MBE1 concentration: 1 uM) [°C]: -4.97
UniProt Q15853 is entered as melting temperature shift (MBE1 concentration: 1 uM) [°C]: 0.0768
UniProt Q15464 is entered as melting temperature shift (MBE1 concentration: 100 nM) [°C]: 0.208
UniProt Q15723 is entered as melting temperature shift (MBE1 concentration: 1 uM) [°C]: -0.666

More entries follow:

| Target | melting temperature shift (MBE1 concentration: 100 nM) [°C] | melting temperature shift (MBE1 concentration: 1 uM) [°C] |
| --- | --- | --- |
| UniProt Q15649 | 0.316 | – |
| CAMK4 (UniProt Q16566) | -0.885 | 0.519 |
| UniProt Q56A73 | – | 0.116 |
| VPS26B (UniProt Q4G0F5) | -0.423 | -0.0805 |
| DPYSL2 (UniProt Q16555) | -1.82 | -0.434 |
| C11ORF73 (UniProt Q53FT3) | -0.355 | 0.0537 |
| IAH1 (UniProt Q2TAA2) | -0.912 | 1.95 |
| CCDC88A (UniProt Q3V6T2) | -0.21 | 0.0423 |
| GXYLT1 (UniProt Q4G148) | -0.932 | -0.785 |
| SOWAHC (UniProt Q53LP3) | -0.0916 | -0.885 |
| DLGAP5 (UniProt Q15398) | -1.25 | -1.2 |
| UGP2 (UniProt Q16851) | -0.708 | 0.305 |
| EZH2 (UniProt Q15910) | -0.506 | -0.16 |
| UniProt Q15542 | -0.0256 | -0.378 |
| CLPP (UniProt Q16740) | -0.623 | -0.0733 |
| VPS72 (UniProt Q15906) | -0.92 | -0.85 |
| UniProt Q53F19 | -0.275 | 0.237 |
| MAPRE1 (UniProt Q15691) | 0.269 | 0.0244 |
| UniProt Q49AM3 | 1.11 | -0.788 |
| UniProt Q15776 | -3.1 | -0.154 |
| GNPTAB (UniProt Q3T906) | -2.96 | 0.0366 |
| TWISTNB (UniProt Q3B726) | 0.141 | 0.216 |
| SRSF7 (UniProt Q16629) | -1.43 | -1.03 |
| AGK (UniProt Q53H12) | -0.872 | 0.309 |
| LLGL1 (UniProt Q15334) | -0.118 | -1.07 |

| Target | melting temperature shift (MBE1 concentration: 100 nM) [°C] | melting temperature shift (MBE1 concentration: 1 uM) [°C] |
| --- | --- | --- |
| SAFB (UniProt Q15424) | -2.12 | -2.93 |
| INF2 (UniProt Q27J81) | 0.259 | 0.72 |
| PWP2 (UniProt Q15269) | 0.055 | -0.256 |
| PUM3 (UniProt Q15397) | -0.0513 | -0.263 |
| PREPL (UniProt Q4J6C6) | -0.581 | 0.36 |
| PSMD5 (UniProt Q16401) | -0.183 | -0.147 |
| PCK2 (UniProt Q16822) | -0.59 | 0.0794 |
| SF3A1 (UniProt Q15459) | 1.51 | 0.0122 |
| RASA2 (UniProt Q15283) | -1.12 | -0.518 |
| NONO (UniProt Q15233) | -0.269 | -0.224 |
| UniProt Q53G59 | 1.47 | 0.751 |
| UniProt Q53HV7 | 0.409 | 0.33 |
| FNDC3B (UniProt Q53EP0) | -0.935 | -0.442 |
| UniProt Q2VPB7 | -2.16 | 0.306 |
| TOMM34 (UniProt Q15785) | -0.499 | -0.615 |
| MYLK (UniProt Q15746) | 3.82 | 0 |
| UniProt Q2TAZ0 | -1.22 | 0.436 |
| UniProt Q15468 | -1.69 | 0.0733 |
| UniProt Q16181 | -0.61 | 0.0201 |
| AKIRIN2 (UniProt Q53H80) | -1.33 | 0.295 |
| PEA15 (UniProt Q15121) | -0.183 | -0.8 |
| UniProt Q16864 | -0.902 | 0.356 |
| NOMO1 (UniProt Q15155) | -0.959 | 0.498 |
